The results in this text go back to PMC10366226.

Sequences of proteins named here, by UniProt entry; tags and fusion partners are left off. Residues count along the entry.
UniProt Q9QUK6, residues 26-835: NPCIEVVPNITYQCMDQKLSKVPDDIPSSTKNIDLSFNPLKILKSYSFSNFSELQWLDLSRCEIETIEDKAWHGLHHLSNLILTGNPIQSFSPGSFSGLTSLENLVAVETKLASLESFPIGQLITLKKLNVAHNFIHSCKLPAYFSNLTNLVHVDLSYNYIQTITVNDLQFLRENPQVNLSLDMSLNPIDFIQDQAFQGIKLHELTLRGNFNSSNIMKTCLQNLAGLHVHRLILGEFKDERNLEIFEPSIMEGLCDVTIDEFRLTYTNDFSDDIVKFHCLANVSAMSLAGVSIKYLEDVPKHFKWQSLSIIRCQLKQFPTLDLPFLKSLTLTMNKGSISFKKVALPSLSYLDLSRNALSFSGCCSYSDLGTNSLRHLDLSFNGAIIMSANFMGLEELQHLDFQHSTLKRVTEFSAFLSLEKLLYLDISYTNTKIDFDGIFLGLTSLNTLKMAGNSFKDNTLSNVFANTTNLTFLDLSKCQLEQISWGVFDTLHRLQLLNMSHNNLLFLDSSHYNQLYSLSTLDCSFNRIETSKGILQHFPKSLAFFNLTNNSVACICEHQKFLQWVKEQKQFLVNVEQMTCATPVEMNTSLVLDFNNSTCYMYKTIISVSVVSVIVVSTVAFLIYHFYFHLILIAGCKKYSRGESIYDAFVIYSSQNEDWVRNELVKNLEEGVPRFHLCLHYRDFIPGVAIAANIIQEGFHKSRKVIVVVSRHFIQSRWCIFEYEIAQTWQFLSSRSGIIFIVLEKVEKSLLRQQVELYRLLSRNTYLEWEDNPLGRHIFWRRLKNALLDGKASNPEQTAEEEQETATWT
UniProt Q62083: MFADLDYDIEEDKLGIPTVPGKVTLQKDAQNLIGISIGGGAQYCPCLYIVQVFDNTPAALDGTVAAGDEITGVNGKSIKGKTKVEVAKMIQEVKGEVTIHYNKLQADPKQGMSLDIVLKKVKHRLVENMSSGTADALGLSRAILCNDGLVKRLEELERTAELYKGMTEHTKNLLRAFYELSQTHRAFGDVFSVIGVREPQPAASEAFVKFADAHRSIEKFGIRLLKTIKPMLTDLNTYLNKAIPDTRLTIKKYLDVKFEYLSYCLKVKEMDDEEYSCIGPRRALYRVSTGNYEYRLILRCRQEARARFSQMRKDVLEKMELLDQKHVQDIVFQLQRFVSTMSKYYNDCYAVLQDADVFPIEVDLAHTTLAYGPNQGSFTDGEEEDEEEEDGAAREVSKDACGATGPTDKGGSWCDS

The assay concerns the target toll-like receptor 4 (mouse (endogenous in liver macrophages)) (UniProt Q9QUK6). The assay can be described thus: co-IP; lysates of mouse liver macrophages incubated with antibodies (anti-PICK1, anti-TLR4, anti-IgG) at 4 °C overnight, then protein A/G magnetic beads; immunoblot. For orientation: Immunoblotting shows a protein as a band on a membrane.

Results are given in words; binding and its absence hold for the method and conditions named. Binding seen in cells or lysates may run through a third protein. Some binding calls cover weakened binding; strength is not graded here.

As to “Protein interacting with C α kinase 1 (from UniProt Q62083 1-416)”, the binding entry is given as “binds”.
